Source: publication PMC8648105
No constants are given. Whether binding was seen depends on the method and setting. Binding seen in cells or lysates may run through a third protein. A yes stands for co-enrichment or nearness to the bait. Other partners may have been found.

Chains of the proteins cited; added tags and fusions are not shown.
UniProt Q21351: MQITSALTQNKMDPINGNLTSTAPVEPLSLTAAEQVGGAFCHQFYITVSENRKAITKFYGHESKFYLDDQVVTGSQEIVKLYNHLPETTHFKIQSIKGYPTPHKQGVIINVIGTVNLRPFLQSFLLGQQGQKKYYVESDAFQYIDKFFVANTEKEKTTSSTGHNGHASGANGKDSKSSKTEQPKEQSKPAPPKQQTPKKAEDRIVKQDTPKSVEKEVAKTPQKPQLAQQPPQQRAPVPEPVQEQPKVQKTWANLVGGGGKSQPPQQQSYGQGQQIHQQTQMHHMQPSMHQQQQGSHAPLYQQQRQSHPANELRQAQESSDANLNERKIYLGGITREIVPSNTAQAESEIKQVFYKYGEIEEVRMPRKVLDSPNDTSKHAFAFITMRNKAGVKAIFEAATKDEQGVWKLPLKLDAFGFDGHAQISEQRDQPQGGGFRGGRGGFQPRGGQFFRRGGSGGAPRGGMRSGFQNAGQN
UniProt G5EES3: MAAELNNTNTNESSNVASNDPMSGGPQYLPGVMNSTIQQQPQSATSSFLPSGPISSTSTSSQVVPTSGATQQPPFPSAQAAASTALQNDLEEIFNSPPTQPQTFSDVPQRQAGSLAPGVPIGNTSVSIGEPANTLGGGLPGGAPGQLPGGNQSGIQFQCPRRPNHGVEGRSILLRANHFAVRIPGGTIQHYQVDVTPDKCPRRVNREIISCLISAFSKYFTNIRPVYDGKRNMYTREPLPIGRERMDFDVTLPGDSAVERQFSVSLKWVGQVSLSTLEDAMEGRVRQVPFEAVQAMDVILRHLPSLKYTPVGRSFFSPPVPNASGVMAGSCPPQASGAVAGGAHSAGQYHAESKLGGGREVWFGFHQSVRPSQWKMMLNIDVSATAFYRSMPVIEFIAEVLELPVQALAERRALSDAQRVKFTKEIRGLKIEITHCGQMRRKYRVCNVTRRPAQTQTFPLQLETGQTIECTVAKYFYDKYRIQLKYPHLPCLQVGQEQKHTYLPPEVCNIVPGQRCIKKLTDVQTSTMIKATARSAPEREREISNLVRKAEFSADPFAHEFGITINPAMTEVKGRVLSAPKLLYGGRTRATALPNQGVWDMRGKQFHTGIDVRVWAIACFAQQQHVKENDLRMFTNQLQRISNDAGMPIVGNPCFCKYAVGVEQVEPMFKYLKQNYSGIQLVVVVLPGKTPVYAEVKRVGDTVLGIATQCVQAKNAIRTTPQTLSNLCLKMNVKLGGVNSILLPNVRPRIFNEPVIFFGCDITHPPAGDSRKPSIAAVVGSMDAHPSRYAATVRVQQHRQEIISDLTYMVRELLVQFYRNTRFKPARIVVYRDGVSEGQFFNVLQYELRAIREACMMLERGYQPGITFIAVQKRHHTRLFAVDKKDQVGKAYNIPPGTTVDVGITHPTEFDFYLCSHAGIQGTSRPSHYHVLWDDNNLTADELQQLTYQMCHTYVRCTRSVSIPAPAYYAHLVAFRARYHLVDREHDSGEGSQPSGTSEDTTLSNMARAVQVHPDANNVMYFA

Target: T1, PQN-59 (C. elegans (endogenous in N2 embryos)) (UniProt O61708)
T1 sequence: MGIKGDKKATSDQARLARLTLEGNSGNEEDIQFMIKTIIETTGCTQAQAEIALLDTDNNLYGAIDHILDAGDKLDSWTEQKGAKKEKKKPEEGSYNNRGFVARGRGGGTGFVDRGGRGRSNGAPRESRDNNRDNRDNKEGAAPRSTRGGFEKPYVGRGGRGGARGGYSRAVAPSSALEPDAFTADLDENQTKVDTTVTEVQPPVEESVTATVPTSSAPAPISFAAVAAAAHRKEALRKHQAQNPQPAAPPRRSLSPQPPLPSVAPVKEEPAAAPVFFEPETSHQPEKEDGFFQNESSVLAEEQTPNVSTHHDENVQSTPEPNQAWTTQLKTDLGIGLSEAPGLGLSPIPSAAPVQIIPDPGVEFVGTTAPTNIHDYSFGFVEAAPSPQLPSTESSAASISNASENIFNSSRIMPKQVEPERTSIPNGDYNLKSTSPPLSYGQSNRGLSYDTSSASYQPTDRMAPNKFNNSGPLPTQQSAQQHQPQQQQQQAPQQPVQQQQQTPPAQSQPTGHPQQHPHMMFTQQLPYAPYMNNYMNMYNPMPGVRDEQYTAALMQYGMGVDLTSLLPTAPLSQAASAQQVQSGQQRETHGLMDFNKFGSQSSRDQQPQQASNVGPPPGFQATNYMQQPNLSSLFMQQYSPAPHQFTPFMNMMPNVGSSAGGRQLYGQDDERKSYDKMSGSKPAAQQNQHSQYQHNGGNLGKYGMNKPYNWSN
Test: affinity purification with mass spectrometry; PQN-59 serum (pre-serum as control) on Protein G UltraLink Resin, about 2 mg of N2 embryonic protein homogenate, 2 hours on ice; IP buffer 100 mM KCl, 50 mM Tris pH 7.5, 1 mM MgCl2, 1 mM DTT, 5% glycerol, 0.05% NP40, 1 mM EDTA; eluted in 0.15% TFA; three IP samples from two homogenates

Row | binding | Substance
1 | binds | GTBP-1 (from UniProt Q21351 1-473)
2 | binds | ALG-1 (from UniProt G5EES3 1-1023)
